Experimental data: paper PMC7235163
Results are given in words; binding and its absence hold for the method and conditions named. Binding seen in cells or lysates may run through a third protein. Some results given as binding are weak or reduced against the parent protein; the word gives no strength.

Protein sequences, listed by entry. Tags and fused reporters are not part of them.
UniProt O14936: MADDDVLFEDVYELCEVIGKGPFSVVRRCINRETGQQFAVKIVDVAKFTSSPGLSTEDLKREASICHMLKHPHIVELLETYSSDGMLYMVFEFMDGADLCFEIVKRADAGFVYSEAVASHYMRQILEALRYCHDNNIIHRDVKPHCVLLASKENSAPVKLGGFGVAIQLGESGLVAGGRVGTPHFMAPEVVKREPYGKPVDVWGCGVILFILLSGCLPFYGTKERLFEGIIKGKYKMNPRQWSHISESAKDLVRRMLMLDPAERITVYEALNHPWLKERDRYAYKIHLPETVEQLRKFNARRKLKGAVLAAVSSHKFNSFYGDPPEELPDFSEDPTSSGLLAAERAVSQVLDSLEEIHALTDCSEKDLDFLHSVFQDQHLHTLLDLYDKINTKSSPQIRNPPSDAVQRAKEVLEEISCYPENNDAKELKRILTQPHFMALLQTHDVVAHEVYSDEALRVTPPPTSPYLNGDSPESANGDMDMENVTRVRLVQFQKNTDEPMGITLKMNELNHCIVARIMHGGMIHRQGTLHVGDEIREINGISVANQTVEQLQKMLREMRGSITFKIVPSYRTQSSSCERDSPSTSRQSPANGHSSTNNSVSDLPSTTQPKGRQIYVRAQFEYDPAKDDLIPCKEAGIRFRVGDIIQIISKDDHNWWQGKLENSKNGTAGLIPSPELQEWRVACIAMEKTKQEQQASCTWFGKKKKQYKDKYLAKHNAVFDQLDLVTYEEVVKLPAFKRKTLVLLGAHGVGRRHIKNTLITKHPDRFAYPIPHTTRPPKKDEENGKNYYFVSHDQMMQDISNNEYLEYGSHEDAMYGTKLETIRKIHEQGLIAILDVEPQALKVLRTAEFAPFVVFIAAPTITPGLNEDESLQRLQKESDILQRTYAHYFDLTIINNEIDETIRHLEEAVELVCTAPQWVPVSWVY
UniProt Q8WUM4: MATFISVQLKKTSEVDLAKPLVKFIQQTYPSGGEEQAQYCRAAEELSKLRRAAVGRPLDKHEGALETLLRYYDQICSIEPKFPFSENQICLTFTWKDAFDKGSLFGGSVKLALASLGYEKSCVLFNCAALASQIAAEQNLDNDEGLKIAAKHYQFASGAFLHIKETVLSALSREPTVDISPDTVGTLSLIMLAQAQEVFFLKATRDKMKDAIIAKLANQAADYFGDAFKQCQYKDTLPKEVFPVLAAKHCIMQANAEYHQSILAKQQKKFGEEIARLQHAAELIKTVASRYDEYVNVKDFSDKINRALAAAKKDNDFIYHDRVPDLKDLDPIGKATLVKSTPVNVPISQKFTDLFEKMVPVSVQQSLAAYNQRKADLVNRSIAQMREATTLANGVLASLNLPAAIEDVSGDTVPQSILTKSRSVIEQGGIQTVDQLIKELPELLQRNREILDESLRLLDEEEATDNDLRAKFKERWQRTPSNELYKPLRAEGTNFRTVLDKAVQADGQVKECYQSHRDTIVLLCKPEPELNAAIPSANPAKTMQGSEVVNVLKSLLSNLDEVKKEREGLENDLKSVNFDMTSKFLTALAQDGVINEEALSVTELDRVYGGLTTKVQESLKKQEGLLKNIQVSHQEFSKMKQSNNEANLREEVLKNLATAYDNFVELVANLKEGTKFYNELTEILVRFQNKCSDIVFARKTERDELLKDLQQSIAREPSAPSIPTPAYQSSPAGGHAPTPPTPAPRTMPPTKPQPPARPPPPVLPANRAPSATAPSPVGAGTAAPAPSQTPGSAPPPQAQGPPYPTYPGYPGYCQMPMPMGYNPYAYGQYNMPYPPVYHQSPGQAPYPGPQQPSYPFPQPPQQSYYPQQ

Biological target: calcium/calmodulin-dependent serine/threonine kinase (CASK) (human (endogenous in M2 macrophages from healthy donors)) (UniProt O14936)
Test: co-IP; reciprocal co-immunoprecipitation from M2 macrophage lysates (25 mmol/L HEPES, 150 mmol/L NaCl, 1% Brij 97, 4°C), antibodies against CASK or ALIX, Protein G-Sepharose, western blot

binding: binds
Substance: ALIX (from UniProt Q8WUM4 1-868)
